# A unit is not stated for every read-out.
# Tests used:
# [1] = Serum ethanolamine phospholipid levels in human cohorts (dementia severity, post-mortem pathology, age) by flow-injection MS/MS
# [2] = Serum ethanolamine phospholipid ratios to PtdEt 16:0/18:0 (M01) in human cohorts
# [3] = serum, females, post mortem SDAT
# [4] = serum, females, post mortem control
smiles,measurement,setting,value
"CCCCCCCCCCCCCCCCCC(=O)O[C@H](COC(=O)CCCCCCCCCCCCCCC)COP(=O)(O)OCCN [Metabolite M01, PtdEt 16:0/18:0]",Ratio of serum levels,"[1]; AD, All to CN, Male",1.028
same,Ratio of serum levels,"[1]; ADAS 5-19 to CN, Male",1.011
same,Ratio of serum levels,"[1]; ADAS 20-39 to 5-19, Male",1.005
same,Ratio of serum levels,"[1]; ADAS 20-39 to CN, Male",1.016
same,Ratio of serum levels,"[1]; ADAS 40-70 to 5-19, Male",1.003
same,Ratio of serum levels,"[1]; ADAS 40-70 to 20-39, Male",0.998
same,Ratio of serum levels,"[1]; ADAS 40-70 to CN, Male",1.014
same,"Serum level, Mean","[1]; Cognitive Normal, Female",0.118
same,"Average serum level, Mean","[1]; Cognitive Normal, Male",0.116
same,"Serum level, Mean","[1]; Post Mortem Ctl, Male",0.127
same,"Serum level, Mean",[1]; Post Mortem SDAT Male,0.089
same,Ratio of serum levels,"[1]; Post mortem SDAT vs Control, Male",0.702
same,"Serum level, Mean","[1]; SDAT, ADAS 5-19, Female",0.109
same,"Average serum level, Mean","[1]; SDAT, ADAS 5-19, Male",0.117
same,"Serum level, Mean","[1]; SDAT, ADAS 20-39, Female",0.112
same,"Average serum level, Mean","[1]; SDAT, ADAS 20-39, Male",0.117
same,"Serum level, Mean","[1]; SDAT, ADAS 40-70, Female",0.118
same,"Average serum level, Mean","[1]; SDAT, ADAS 40-70, Male",0.117
same,"Serum level, Mean","[1]; SDAT_all, Female",0.113
same,"Average serum level, Mean","[1]; SDAT_all, Male",0.119
same,"Ratio, ADAS 5-19 to CN, Female","[1]; serum level ratio, females, ADAS 5-19 vs CN",0.929
same,"Ratio, ADAS 20-39 to 5-19, Female","[1]; serum level ratio, females, ADAS 20-39 vs ADAS 5-19",1.023
same,"Ratio, ADAS 20-39 to CN, Female","[1]; serum level ratio, females, ADAS 20-39 vs CN",0.951
same,"Ratio, ADAS 40-70 to 5-19, Female","[1]; serum level ratio, females, ADAS 40-70 vs ADAS 5-19",1.080
same,"Ratio, ADAS 40-70 to 20-39, Female","[1]; serum level ratio, females, ADAS 40-70 vs ADAS 20-39",1.056
same,"Ratio, ADAS 40-70 to CN, Female","[1]; serum level ratio, females, ADAS 40-70 vs CN",1.004
same,"Ratio, 50-59 vs. 40-49, Female","[1]; serum level ratio, females, age 50-59 vs 40-49",0.925
same,"Ratio, 60-69 vs. 40-49, Female","[1]; serum level ratio, females, age 60-69 vs 40-49",1.118
same,"Ratio, 70+ vs. 40-49, Female","[1]; serum level ratio, females, age 70+ vs 40-49",1.110
same,"Ratio, AD, All to CN, Female","[1]; serum level ratio, females, all AD vs cognitively normal",0.963
same,"Ratio, Autopsy AD vs. Control, Female","[1]; serum level ratio, females, autopsy AD vs control",0.697
same,"Ratio, 50-59 vs. 40-49, Male","[1]; serum level ratio, males, age 50-59 vs 40-49",0.955
same,"Ratio, 60-69 vs. 40-49, Male","[1]; serum level ratio, males, age 60-69 vs 40-49",1.110
same,"Ratio, 70+ vs. 40-49, Male","[1]; serum level ratio, males, age 70+ vs 40-49",1.097
same,"Mean serum level, Age Ctl, 30-39, Female","[1]; serum, females, age 30-39",0.103
same,"Mean serum level, Age Ctl, 40-49, Female","[1]; serum, females, age 40-49",0.114
same,"Mean serum level, Age Ctl, 50-59, Female","[1]; serum, females, age 50-59",0.105
same,"Mean serum level, Age Ctl, 60-69, Female","[1]; serum, females, age 60-69",0.127
same,"Mean serum level, Age Ctl, 70+, Female","[1]; serum, females, age 70+",0.126
same,"Mean serum level, Post Mortem SDAT, Female",[1]; [3],0.124
same,"Mean serum level, Post Mortem Ctl, Female",[1]; [4],0.179
same,"Mean serum level, Age Ctl, 30-39, Male","[1]; serum, males, age 30-39",0.122
same,"Mean serum level, Age Ctl, 40-49, Male","[1]; serum, males, age 40-49",0.119
same,"Mean serum level, Age Ctl, 50-59, Male","[1]; serum, males, age 50-59",0.113
same,"Mean serum level, Age Ctl, 60-69, Male","[1]; serum, males, age 60-69",0.132
same,"Mean serum level, Age Ctl, 70+, Male","[1]; serum, males, age 70+",0.130
same,Ratio of ethanolamine phospholipid ratios to M01 between cohorts,"[2]; AD, All to CN, Male",1.000
same,Ratio of ethanolamine phospholipid ratios to M01 between cohorts,"[2]; ADAS 5-19 to CN, Male",1.000
same,Ratio of ethanolamine phospholipid ratios to M01 between cohorts,"[2]; ADAS 20-39 to CN, Male",1.000
same,Ratio of ethanolamine phospholipid ratios to M01 between cohorts,"[2]; ADAS 40-70 to CN, Male",1.000
same,"Average serum ethanolamine phospholipid ratio to M01, Mean","[2]; Cognitive Normal, Male, serum",1.000
same,"Average serum ethanolamine phospholipid ratio to M01, Mean","[2]; SDAT, ADAS 5-19, Male, serum",1.000
same,"Average serum ethanolamine phospholipid ratio to M01, Mean","[2]; SDAT, ADAS 20-39, Male, serum",1.000
same,"Average serum ethanolamine phospholipid ratio to M01, Mean","[2]; SDAT, ADAS 40-70, Male, serum",1.000
same,"Average serum ethanolamine phospholipid ratio to M01, Mean","[2]; SDAT_all, Male, serum",1.000
same,"Ethanolamine Phospholipid Ratio to M01, Mean, Age Ctl, 30-39, Female","[2]; human serum, females aged 30-39",1.000
same,"Ethanolamine Phospholipid Ratio to M01, Mean, Age Ctl, 40-49, Female","[2]; human serum, females aged 40-49",1.000
same,"Ethanolamine Phospholipid Ratio to M01, Mean, Age Ctl, 50-59, Female","[2]; human serum, females aged 50-59",1.000
same,"Ratio of Ethanolamine Phospholipid Ratio to M01, 50-59 vs. 40-49, Female","[2]; human serum, females aged 50-59 vs. females aged 40-49",1.000
same,"Ethanolamine Phospholipid Ratio to M01, Mean, Age Ctl, 60-69, Female","[2]; human serum, females aged 60-69",1.000
same,"Ratio of Ethanolamine Phospholipid Ratio to M01, 60-69 vs. 40-49, Female","[2]; human serum, females aged 60-69 vs. females aged 40-49",1.000
same,"Ethanolamine Phospholipid Ratio to M01, Mean, Age Ctl, 70+_Female","[2]; human serum, females aged 70+",1.000
same,"Ratio of Ethanolamine Phospholipid Ratio to M01, 70+ vs. 40-49, Female","[2]; human serum, females aged 70+ vs. females aged 40-49",1.000
same,"Ratio of Ethanolamine Phospholipid Ratio to M01, 50-59 vs. 40-49, Male","[2]; human serum, males aged 50-59 vs. males aged 40-49",1.000
same,"Ratio of Ethanolamine Phospholipid Ratio to M01, 60-69 vs. 40-49, Male","[2]; human serum, males aged 60-69 vs. males aged 40-49",1.000
same,"Ratio of Ethanolamine Phospholipid Ratio to M01, 70+ vs. 40-49, Male","[2]; human serum, males aged 70+ vs. males aged 40-49",1.000
same,"Ratio of ethanolamine phospholipid ratio to M01, ADAS 5-19 to CN, Female","[2]; serum, females, ADAS 5-19 vs cognitive normal",1.000
same,"Ratio of ethanolamine phospholipid ratio to M01, ADAS 20-39 to 5-19, Female","[2]; serum, females, ADAS 20-39 vs ADAS 5-19",1.000
same,"Ratio of ethanolamine phospholipid ratio to M01, ADAS 20-39 to CN, Female","[2]; serum, females, ADAS 20-39 vs cognitive normal",1.000
same,"Ratio of ethanolamine phospholipid ratio to M01, ADAS 40-70 to 5-19, Female","[2]; serum, females, ADAS 40-70 vs ADAS 5-19",1.000
same,"Ratio of ethanolamine phospholipid ratio to M01, ADAS 40-70 to 20-39, Female","[2]; serum, females, ADAS 40-70 vs ADAS 20-39",1.000
same,"Ratio of ethanolamine phospholipid ratio to M01, ADAS 40-70 to CN, Female","[2]; serum, females, ADAS 40-70 vs cognitive normal",1.000
same,"Ethanolamine phospholipid ratio to M01, Mean, SDAT, ADAS 5-19, Female","[2]; serum, females, SDAT ADAS 5-19",1.000
same,"Ethanolamine phospholipid ratio to M01, Mean, SDAT, ADAS 20-39, Female","[2]; serum, females, SDAT ADAS 20-39",1.000
same,"Ethanolamine phospholipid ratio to M01, Mean, SDAT, ADAS 40-70, Female","[2]; serum, females, SDAT ADAS 40-70",1.000
same,"Ratio of ethanolamine phospholipid ratio to M01, AD, All to CN, Female","[2]; serum, females, all AD vs cognitive normal",1.000
same,"Ethanolamine phospholipid ratio to M01, Mean, SDAT_all Female","[2]; serum, females, all SDAT",1.000
same,"Ratio of ethanolamine phospholipid ratio to M01, Autopsy AD vs. Control, Female","[2]; serum, females, autopsy AD vs post mortem control",1.000
same,"Ethanolamine phospholipid ratio to M01, Mean, Cognitive Normal, Female","[2]; serum, females, cognitive normal",1.000
same,"Ethanolamine phospholipid ratio to M01, Mean, Post Mortem SDAT Female",[2]; [3],1.000
same,"Ethanolamine phospholipid ratio to M01, Mean, Post Mortem Ctl, Female",[2]; [4],1.000
same,"Ratio of ethanolamine phospholipid ratio to M01, ADAS 20-39 to 5-19, Male","[2]; serum, males, SDAT ADAS 20-39 vs ADAS 5-19",1.000
same,"Ratio of ethanolamine phospholipid ratio to M01, ADAS 40-70 to 5-19, Male","[2]; serum, males, SDAT ADAS 40-70 vs ADAS 5-19",1.000
same,"Ratio of ethanolamine phospholipid ratio to M01, ADAS 40-70 to 20-39, Male","[2]; serum, males, SDAT ADAS 40-70 vs ADAS 20-39",1.000
same,"Ethanolamine phospholipid ratio to M01, Mean, Age Ctl, 30-39, Male","[2]; serum, males, age control 30-39",1.000
same,"Ethanolamine phospholipid ratio to M01, Mean, Age Ctl, 40-49, Male","[2]; serum, males, age control 40-49",1.000
same,"Ethanolamine phospholipid ratio to M01, Mean, Age Ctl, 50-59, Male","[2]; serum, males, age control 50-59",1.000
same,"Ethanolamine phospholipid ratio to M01, Mean, Age Ctl, 60-69, Male","[2]; serum, males, age control 60-69",1.000
same,"Ethanolamine phospholipid ratio to M01, Mean, Age Ctl, 70+_Male","[2]; serum, males, age control 70+",1.000
same,"Ethanolamine phospholipid ratio to M01, Mean, Post Mortem SDAT Male","[2]; serum, males, post mortem SDAT",1.000
same,"Ratio of ethanolamine phospholipid ratio to M01, SDAT vs Control (post mortem, males)","[2]; serum, males, post mortem SDAT vs post mortem control",1.000
same,"Ethanolamine phospholipid ratio to M01, Mean, Post Mortem Ctl, Male","[2]; serum, males, post mortem control",1.000

# Source: patent US9517222B2, “Method for the treatment of senile dementia of the Alzheimer's type” (Phenomenome Discoveries Inc., priority 2007, dated 2016)
